Measured values from patent publication US20230218654A1, “COMPOSITIONS AND METHODS FOR TREATING HYPERGLYCEMIA IN TYPE-2 DIABETES” (The Board of Regents of the university of Oklahoma, priority 2020, published 2023).
For at least one compound, name, drawing or mass did not settle the structure.

System: AML12 mouse hepatocytes
Assay: Western blot of insulin signaling and cullin neddylation in AML12 cells
Type: cell-based
Description: MLN4924 increases IRS protein and AKT activation in the presence of insulin. Mouse AML 12 hepatocytes were serum starved for 16 h. Cells were then pre-treated with MLN4924 for 1 h followed by 100 nM insulin stimulation for 4 h. Western blot was then performed to evaluate insulin signaling activation.
AML 12 cells were serum starved for 16 h. Cells were then pre-treated with 500 nM MLN4924 or vehicle (DMSO) for 1 h, followed by 100 µg/ml cycloheximide (CHX) and 100 nM insulin treatment.
AML12 cells were serum starved for 16 h. Cells were then pre-treated with 500 nM MLN4924 for 1 h followed by 100 nM insulin stimulation in time course.
FIG. 18A is a Western blot analysis showing that MLN4924 enhances hepatocyte insulin responsiveness (signaling) by delaying feedback IRS degradation. AML12 cells were serum starved for 16 h. Cells were then pre-treated with MLN4924 for 1 h followed by insulin stimulation for 4 h.
FIG. 18D is a Western blot analysis of insulin signaling in AML12 cells serum starved for 16 h, then pre-treated with 500 nM MLN4924 for 1 h followed by 100 nM insulin stimulation in time course.
FIG. 18E is a Western blot analysis of AML12 cells serum starved for 16 h then pre-treated with 500 nM MLN4924 or vehicle (DMSO) for 1 h, followed by 100 µg/ml cycloheximide (CHX) and 100 nM insulin treatment. Cells were collected at the indicated time for Western blotting.
FIG. 18F is a Western blot analysis of insulin signaling in AML12 cells serum starved for 16 h then pre-treated with 100 nM rapamycin and 500 nM MLN4924 as indicated for 1 h followed by additional 2 h incubation in the presence or absence of 100 nM insulin. Blots are representative of 2-4 independent experiments.
(§1) FIG. 20 is a Western blot analysis showing that MLN4924 enhances hepatocyte insulin responsiveness in cells treated with wortmannin by delaying feedback IRS degradation (related to FIG. 18A). AML12 cells were serum starved for 16 h then pre-treated with 1 µM wortmannin (Wort) and 500 nM MLN4924 as indicated for 1 h followed by additional 2 h incubation in the presence or absence of 100 nM insulin. Blots are representative of 2 independent experiments.
as §1, with “21” for “20”, “Torin 1” for “wortmannin”, “250 nM Torin1” for “1 µM wortmannin (Wort)”
MLN4924 and TAS4464 were purchased from MedChemExpress (MCE, Monmouth Junction, NJ). For cell treatment, MLN4924 and TAS4464 were dissolved in DMSO. […]

[1] = 100 nM rapamycin, insulin-stimulated
[2] = 1 µM wortmannin or 250 nM Torin1, 100 nM insulin

Compound	IRS1 serine phosphorylation [1]	IRS protein [1]	downstream AKT activation [2]	downstream mTOR activation [2]
CO[C@H]1C[C@@H]2CC[C@@H](C)[C@@](O)(O2)C(=O)C(=O)N2CCCC[C@H]2C(=O)O[C@H]([C@H](C)C[C@@H]2CC[C@@H](O)[C@H](OC)C2)CC(=O)[C@H](C)/C=C(\C)[C@@H](O)[C@@H](OC)C(=O)[C@H](C)C[C@H](C)/C=C/C=C/C=C/1C [rapamycin]	decreased IRS1 serine phosphorylation	increased IRS protein to similar levels in MLN4924-treated cells	–	–
COC[C@H]1OC(=O)c2coc3c2[C@@]1(C)C1=C(C3=O)[C@@H]2CCC(=O)[C@@]2(C)C[C@H]1OC(C)=O [wortmannin]	–	–	decreased downstream AKT activation	blocked downstream mTOR activation
